Data as given in patent US10100120B2, “Antibody which specifically binds to human CRTH2” (KYOWA HAKKO KIRIN CO., LTD, priority 2015, dated 2018).

Test system: mutated human CRTH2 with amino acid substitution
Experiment: Epitope analysis using CHO-S cells which express mutated human CRTH2 with amino acid substitution
Type: binding
Details: concluded from mutant reactivity
Protocol: A mutant with amino acid substitution expression vector obtained by partially substituting amino acid residues in an extracellular region with other amino acid residues among the amino acid sequences of human CRTH2 was prepared. Specifically, mutant with amino acid substitution expression vectors obtained by substitution of S2A; N4A; T6A and L7A; K8A, P9A, and L10A; P12A, L14A, and EISA; Q16E, R19H, and Q21R; H23A, S24A, and N25A; T26A, S27A, and I28A; D171A, T172A, and I173A; S174A, R175A, and L176A; D177A, G178A, and R179A; 1180A and M181A; Y183A, Y184A, and N185A; L187A, L188A, and L189A; N190A; P191A; G192A; P193A; D194A; R195A; D196A, and T198A; N275A, G277A, and L278A; P276A; P279A and L281A; P280A; or V282A, R283A, and R284A in the amino acid sequences represented by SEQ ID NO: 2 were respectively prepared. It should be noted that the above symbols in the amino acid substitution indicate [single letter code of an amino acid residue before substitution] [substitution position counting from the N terminal] [single letter code of the amino acid reside after substitution]. […]
After the reaction, the cells were washed and suspended with SM, and the fluorescent intensity was analyzed by flow cytometry (BD Biosciences, FACS CantoII). […]

| Molecule | epitope recognized on human CRTH2 |
| --- | --- |
| chLym2: rat/human chimeric Lym2 antibody, Lym2 variable regions with human IgG1 and κ constant regions (antibody, V domains shown) VH: EVQLVESGGGLVQPGRSMKLSCAASGFTFSNYYMAWVRQAPKKGLEWVATISYDGSSTYYRDSVKGRFTISRDNAKSTLYLQMDSLRSEDTATYYCARHRGYYYSGAGYFDYWGQGVMVTVSS VL: DVVLTQTPVSLSVTLGDQASISCRSSQSLEYSDGYTYLEWYLQKPGQSPQVLIYGVSNRFSGVPDRFIGSGSGTDFTLKISRVEPEDLGVYYCFQATHDPLTFGSGTKLEIK | bind to the same epitope |
| LV1HV0: humanized Lym2 antibody, VL LV1 (SEQ ID NO: 35), VH HV0 (SEQ ID NO: 49) (antibody, V domains shown) VH: EVQLVESGGGVVQPGRSLRLSCAASGFTFSNYYMAWVRQAPGKGLEWVATISYDGSSTYYRDSVKGRFTISRDNAKNSLYLQMNSLRAEDTAVYYCARHRGYYYSGAGYFDYWGQGTMVTVSS VL: DIVMTQTPLSLPVTLGESASISCRSSQSLEYSDGYTYLEWYLQKPGQSPQVLIYGVSNRFSGVPDRFSGSGSGTDFTLKISRVEAEDVGVYYCFQATHDPLTFGQGTKLEIK | bind to the same epitope |
